From patent US12577231B2, “Androgen receptor PROTACS” (GlaxoSmithKline Intellectual Property Development Limited, priority 2023, dated 2026)
Substitutions are numbered along the chain they refer to. Some of these results come from one statement about several compounds together.

Columns and labels:
[1] = target: T1, Androgen Receptor protein in human LnCaP cells (Homo sapiens, UniProt P10275, T878A); experiment: Androgen Receptor Degradation Assay (Nano-Glo HiBiT, LnCaP cells); type: cell-based; settings: HiBiT-tagged AR LnCaP cells, 18 h incubation
T1 construct: the AR gene was modified, using CRISPR/Cas9 editing, so the expressed AR protein included an 11 amino acid HiBiT tag; endogenous in cells; host or cells: clonal LnCaP derived cell line, endogenous AR gene edited by CRISPR/Cas9
T1 sequence (P10275 1-920 T878A): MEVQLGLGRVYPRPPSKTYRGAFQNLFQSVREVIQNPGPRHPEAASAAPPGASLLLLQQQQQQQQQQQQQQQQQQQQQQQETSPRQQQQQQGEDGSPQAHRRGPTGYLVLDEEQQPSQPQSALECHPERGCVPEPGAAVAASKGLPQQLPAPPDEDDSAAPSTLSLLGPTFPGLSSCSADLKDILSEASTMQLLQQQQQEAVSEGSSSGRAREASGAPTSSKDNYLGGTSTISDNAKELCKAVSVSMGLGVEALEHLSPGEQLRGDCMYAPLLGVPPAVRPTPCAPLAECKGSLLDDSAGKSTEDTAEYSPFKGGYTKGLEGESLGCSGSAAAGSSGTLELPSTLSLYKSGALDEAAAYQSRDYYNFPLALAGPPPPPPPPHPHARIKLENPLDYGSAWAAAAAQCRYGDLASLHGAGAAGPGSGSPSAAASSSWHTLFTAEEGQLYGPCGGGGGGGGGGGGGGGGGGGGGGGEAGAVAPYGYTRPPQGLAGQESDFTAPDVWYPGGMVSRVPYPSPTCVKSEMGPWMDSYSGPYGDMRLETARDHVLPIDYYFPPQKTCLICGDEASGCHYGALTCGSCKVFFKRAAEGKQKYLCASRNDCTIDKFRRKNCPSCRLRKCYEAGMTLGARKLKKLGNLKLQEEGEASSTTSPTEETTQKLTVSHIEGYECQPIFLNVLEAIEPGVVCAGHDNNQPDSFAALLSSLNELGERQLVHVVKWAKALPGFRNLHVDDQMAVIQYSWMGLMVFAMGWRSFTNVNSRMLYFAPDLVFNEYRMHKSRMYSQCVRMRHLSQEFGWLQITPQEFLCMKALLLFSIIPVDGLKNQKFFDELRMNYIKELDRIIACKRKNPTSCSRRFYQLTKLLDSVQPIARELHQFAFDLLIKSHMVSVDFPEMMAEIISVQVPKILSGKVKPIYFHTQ
Protocol: Degradation of Androgen Receptor protein in human LnCaP cells treated with PROTACs was quantified using the Nano-Glo® HiBiT Lytic Detection System (Promega) in 384 well assay plate format. A clonal LnCaP derived cell line was first established in which the AR gene was modified, using CRISPR/Cas9 editing, so the expressed AR protein included an 11 amino acid HiBiT tag at its amino-terminus. 10 mM DMSO stock solutions of PROTACs were prepared and diluted across an 11 concentration, 3 fold increment range, and 25 nL dispensed into a white opaque bottomed 384 well assay plate (Thermofisher) using an acoustic ECHO dispenser (Labcyte). Cells were grown in cell culture medium (RPMI 1640 supplemented with 15% FBS, penicillin 50U/mL and streptomycin 50 ug/mL (Thermofisher)). For the assay, cells were detached from flask and resuspended with assay medium (FluoroBrite™ DMEM supplemented with 10% heat inactivated FBS, penicillin 50U/mL and streptomycin 50 ug/mL (Thermofisher)). The cell suspension was centrifuged at 400 g for 5 min and the pellet resuspended in assay medium. 25 μL of cell suspension containing 10,000 cells was dispensed into each well of the assay plate containing a serial dilution of test compounds, which was then incubated for 18 h at 37° C./5% CO2. Control wells were included on each assay plate, with assay medium without cells being the no AR remaining 100% effect control, and cells treated with DMSO vehicle only, without PROTAC, the 0% effect control. 25 μL of Nano-Glo® HiBiT lysis buffer supplemented with LgBiT protein and Nano-Glo® substrate (Promega) was added to each well and the plate shaken at 500 rpm for 10 min at room temperature. The intensity of luminescence was measured using a PHERAstar microplate reader (BMG Labtech) and the % AR protein remaining in each well calculated by normalising the raw luminescence value to the above control wells. Parameters corresponding to the potency and efficacy estimates of the PROTACs were obtained from these normalised luminescence values using software (IDBS ActivityBase). These included the DC50 (concentration at which 50% of protein was degraded in M) and the Dmax (maximal degradation, in %) estimates. Two versions of the DC50, called relative DC50 and absolute DC50, were generated. These are the inflection point of a fitted 4 parameter sigmoidal response curve and the interpolated concentration of PROTAC corresponding to 50% of the protein being degraded, respectively. The corresponding pDC50 is reported as −log10(relative […]). The Dmax parameter was the maximum experimentally observed degradation and the asymptote max parameter the fitted response curve asymptote maximum.

[2] = target: T2, Androgen Receptor, LNCaP (AR T878A) (Homo sapiens, UniProt P10275, T878A); experiment: Androgen Receptor Degradation-Imaging Assay, LNCaP cell line; type: cell-based; settings: 16 hours treatment, immunofluorescence
T2 construct: endogenous in cells; host or cells: LNCaP
T2 sequence (P10275 1-920 T878A): T1 sequence (P10275 1-920 T878A)
Protocol: (§1) Degradation of Androgen Receptor (AR) protein in human prostate cancer cell lines (MDA-PCa-2b (AR T878A/L702H), LNCaP (AR T878A), VCaP (AR wild type and amplified) 22RV1 (AR H875Y) and PC3 (AR negative control)) treated with AR PROTACs was quantified using immunofluorescence. Prostate cancer cells were plated (MDA-PCa-2b, and VCaP 16,000 cells/well; LNCaP and 22RV1 32,000 cells/well, and PC3 8,000 cells/well) in an optical bottom 96-well cell culture plate and allowed to attach overnight. The prostate cancer cell lines were treated for 16 hours with a 10-point 3-fold dilution series (dose range=0.02 nM to 333 nM). PC3 is included as an AR negative control and not treated with compound. Cells are fixed and permeabilized with 4% formaldehyde, blocked with 10% goat serum in immunofluorescence (IF) buffer (130 mM NaCl, 7 mM Na2HPO4, 3.5 mM NaH2PO4, 7.7 mM NaN3, 0.1% BSA, 0.2% Triton X, 0.05% Tween 20) prior to overnight incubation with rabbit antibody specific for C terminus of AR (commercially available from RevMaB Biosciences). Following washes with IF buffer, cells were incubated with fluorescent secondary antibody (Goat anti-rabbit Alexa 647; commercially available from Invitrogen) and Hoechst nuclear stain (commercially available from Themo Scientific) prior to quantification of nuclear AR levels via Opera Phenix high-content fluorescent imager using a 40× water objective. Image analysis was performed with Harmony software.
(§2) The averaged nuclear Alexa 647 median fluorescence intensity (MFI) of PC3 cells is subtracted from the nuclear Alexa 647 MFI of PROTAC treated and DMSO control treated cells. % AR remaining is calculated for PROTAC treatments as a percent of the DMSO control (MFI PROTAC treated/MFI DMSO control treated)*100). DC50 and the Dmax values, were obtained from these normalised values fitted with a 4-parameter sigmoidal response curve (Xlfit software). The DC50 is the interpolated concentration of PROTAC corresponding to 50% of the protein being degraded, and the Dmax parameter is the maximum experimentally observed degradation.

[3] = system: Androgen Receptor, 22RV1 (AR H875Y); experiment: Androgen Receptor Degradation-Imaging Assay, 22RV-1 cell line; type: cell-based, human; settings: 22RV-1, 16 hours treatment; for pDC50: immunofluorescence; for Dmax: maximum observed degradation
[4] = target: T3, Androgen Receptor, VCaP (AR wild type and amplified) (Homo sapiens, UniProt P10275); experiment: Androgen Receptor Degradation-Imaging Assay, VCaP cell line; type: cell-based; settings: 16 hours treatment, immunofluorescence
T3 construct: endogenous in cells; host or cells: VCaP
T3 sequence (P10275 1-920): T1 sequence (P10275 1-920 T878A) with A878T
Protocol: as §1, §2

[5] = target: T4, Androgen Receptor, MDA-PCa-2b (AR T878A/L702H) (Homo sapiens, UniProt P10275, L702H/T878A); experiment: Androgen Receptor Degradation-Imaging Assay, MDA-PCa-2b cell line; type: cell-based; settings: 16 hours treatment, immunofluorescence
T4 construct: host or cells: MDA-PCa-2b
T4 sequence (P10275 1-920 L702H/T878A): T1 sequence (P10275 1-920 T878A) with L702H
Protocol: as §1, §2

| Compound | mean relative pDC50 [1] | pDC50 [2] | pDC50 [3] | Dmax [3] [%] | pDC50 [4] | pDC50 [5] |
| --- | --- | --- | --- | --- | --- | --- |
| COc1cc(O[C@H]2C(C)(C)[C@H](NC(=O)c3ccc(N4CCC(CN5CCC(n6ncc7c(N8CCC(=O)NC8=O)c(F)ccc76)CC5)CC4)c(F)c3)C2(C)C)ccc1C#N [Example 25, N-((1r,3r)-3-(4-Cyano-3-methoxyphenoxy)-2,2,4,4-tetramethylcyclobutyl)-4-(4-((4-(4-(2,4-dioxotetrahydropyrimidin-1(2H)-yl)-5-fluoro-1H-indazol-1-yl)piperidin-1-yl)methyl)piperidin-1-yl)-3-fluorobenzamide] | ≥ 7.0 |  |  |  |  |  |
| CC1(C)[C@H](NC(=O)c2ccc(N3CCC(CN4CCC(n5ccc6c(N7CCC(=O)NC7=O)ncnc65)CC4)CC3)c(F)c2)C(C)(C)[C@H]1Oc1ccc(C#N)c2ncccc12 [Example 47, N-((1r,3r)-3-((8-Cyanoquinolin-5-yl)oxy)-2,2,4,4-tetramethylcyclobutyl)-4-(4-((4-(4-(2,4-dioxotetrahydropyrimidin-1(2H)-yl)-7H-pyrrolo[2,3-d]pyrimidin-7-yl)piperidin-1-yl)methyl)piperidin-1-yl)-3-fluorobenzamide] |  | ≥ 8.0 | ≥ 8.0 | ≥ 80 | ≥ 8.0 | ≥ 7.0 |
| CC1(C)[C@H](NC(=O)c2ccc(N3CCC(O)(CN4CCC(n5ncc6c(N7CCC(=O)NC7=O)cccc65)CC4)CC3)c(F)c2)C(C)(C)[C@H]1Oc1ccc(C#N)c2ncccc12 [Example 48, N-((1r,3r)-3-((8-Cyanoquinolin-5-yl)oxy)-2,2,4,4-tetramethylcyclobutyl)-4-(4-((4-(4-(2,4-dioxotetrahydropyrimidin-1(2H)-yl)-1H-indazol-1-yl)piperidin-1-yl)methyl)-4-hydroxypiperidin-1-yl)-3-fluorobenzamide] |  | ≥ 8.0 | ≥ 8.0 | ≥ 80 | ≥ 8.0 | ≥ 7.0 |
